Data from patent publication US20060141569A1, “Compositions and methods for the assay of G-protein coupled receptors and their ligands” (priority 2004, published 2006).
These are yes or no findings as the source states them, for the method shown. Some binding calls cover weakened binding; strength is not graded here.

Chains of the proteins cited; added tags and fusions are not shown. Lines headed by an entry give the natural chain unless they say otherwise; changes in a name come on top. A line that says so, or that is headed by a name, gives the form on record, which may keep a tag or linker. Residues count along the entry.
UniProt P25025: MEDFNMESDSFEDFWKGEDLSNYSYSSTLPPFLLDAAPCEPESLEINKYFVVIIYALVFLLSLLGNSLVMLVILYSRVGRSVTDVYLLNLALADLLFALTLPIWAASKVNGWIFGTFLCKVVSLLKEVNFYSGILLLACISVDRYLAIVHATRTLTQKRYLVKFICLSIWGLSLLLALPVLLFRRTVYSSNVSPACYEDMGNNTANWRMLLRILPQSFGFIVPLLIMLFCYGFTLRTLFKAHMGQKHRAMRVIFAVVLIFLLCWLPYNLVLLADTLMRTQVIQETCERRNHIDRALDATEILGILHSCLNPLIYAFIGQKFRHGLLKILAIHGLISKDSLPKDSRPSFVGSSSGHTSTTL
CXCR2 encoded by the expression vector pHS, in CHEM-1 cells (P25025, form named): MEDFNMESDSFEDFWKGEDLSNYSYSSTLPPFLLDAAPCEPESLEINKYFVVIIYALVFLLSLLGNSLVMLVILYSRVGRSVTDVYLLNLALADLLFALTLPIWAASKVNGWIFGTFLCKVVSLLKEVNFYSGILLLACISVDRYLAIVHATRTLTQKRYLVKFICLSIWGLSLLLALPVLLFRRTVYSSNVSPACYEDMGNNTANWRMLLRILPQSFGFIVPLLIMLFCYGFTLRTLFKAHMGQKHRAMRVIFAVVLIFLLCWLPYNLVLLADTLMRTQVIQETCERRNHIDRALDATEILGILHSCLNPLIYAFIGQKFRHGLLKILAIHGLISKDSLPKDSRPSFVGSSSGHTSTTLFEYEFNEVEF
UniProt P09341, residues 35-107: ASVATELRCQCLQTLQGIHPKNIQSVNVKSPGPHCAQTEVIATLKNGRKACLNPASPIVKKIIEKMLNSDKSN

Tests used:
[1] = target: CXCR2 encoded by the expression vector pHS, in CHEM-1 cells (UniProt P25025); assay: competition against 125I-Groα, one site curve, FIG. 8B (CHEM-1/pHS membranes)
[2] = target: CXCR2 encoded by the mammalian expression vector pcDNA3, in CHO cells (UniProt P25025); assay: competition against 125I-Groα, CHO membranes
[3] = target: CXCR2 encoded by the expression vector pHS, in CHEM-1 cells (UniProt P25025); assay: competition against 125I-Groα, CHEM-1 membranes

Measured: binding

cold ligand Groα (from UniProt P09341 35-107)
binds: all assays above
